Data as given in PubChem BioAssay AID1259308 (NCATS, 2017)
Aim: 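Candidate targets for better recombinant protein yield in mammalian cells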 (primary screen). System: human HEK293 embryonic kidney cells stably expressing firefly luciferase (HEK-CMV-Luc2-Hygro). Knock-down reagent: single siRNA against human genes, 0.8 pmol siRNA per well. Timing: 72 h. Read-out: 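Reporter luminescence and viable-cell signal on separate replicate plates, given as percent of non-targeting control and median/MAD z-scores, plus per-cell luciferase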. Reading the numbers: total luciferase, z-score and total luciferase, % of control: higher = more reporter protein produced; luciferase per cell, z-score: higher = more reporter output per viable cell; viable cells, % of control: higher = more viable cells. Active means: 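An siRNA counts as active if its total luciferase robust z-score exceeds 3; genes with two or more such siRNAs out of three were retested with fresh siRNAs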. Calls: active = raised luciferase; inactive = no rise.
This is one part, drawn at random, of about 59,000 reagents. In the full data, about 1,510 (2.6%) are marked active. 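Calls use total luciferase alone and ignore viability, so some active siRNAs may act by altering cell number.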 Reagents against one gene are numbered here.

target gene	reagent	total luciferase, z-score	total luciferase, % of control	luciferase per cell, z-score	viable cells, % of control	Outcome
TEX55	1	0.678	95.4	0.564	91.9	inactive
TEX55	2	1.35	109	0.605	104	inactive
TEX55	3	-0.0862	80.2	0.25	83.9	inactive
FOXC1	1	-0.156	78.8	-0.568	102	inactive
FOXC1	2	1.67	115	1.33	90.5	inactive
FOXC1	3	-0.0417	81.1	-0.29	97.8	inactive
ERI2	1	1.44	110	2.85	58.2	inactive
ERI2	2	0.754	96.9	0.966	84	inactive
ERI2	3	0.0974	83.8	0.00711	93.5	inactive
AURKB	1	-1.72	47.8	-0.947	68.5	inactive
AURKB	2	-0.847	65	-0.757	88.7	inactive
AURKB	3	-0.309	75.7	-0.544	97.7	inactive
CEMIP	1	-0.239	77.1	-0.866	108	inactive
CEMIP	2	-1.16	58.8	-1.1	87.8	inactive
CEMIP	3	-0.573	70.5	0.115	76.4	inactive
PLCB2	1	-0.161	78.7	-0.507	101	inactive
PLCB2	2	0.325	88.4	0.174	94.3	inactive
PLCB2	3	-1.67	48.7	-1.73	85.9	inactive
DEFB135	1	0.86	99	2.47	57.7	inactive
DEFB135	2	1.25	107	1.47	81.1	inactive
DEFB135	3	-0.279	76.3	-0.378	94.2	inactive
GRXCR1	1	1.53	112	0.652	106	inactive
GRXCR1	2	-0.841	65.2	-0.88	91.8	inactive
GRXCR1	3	-3.26	17.1	-4.53	63.1	inactive
STON2	1	-1.48	52.5	-1.55	88.1	inactive
STON2	2	-0.28	76.3	0.232	80.2	inactive
STON2	3	1.97	121	0.985	104	inactive
TP73	1	2.98	141	2.02	92.7	inactive
TP73	2	-0.0539	80.8	1	69.4	inactive
TP73	3	-0.0951	80	0.109	86.9	inactive
OR5B2	1	-0.0408	81.1	0.726	74.8	inactive
OR5B2	2	0.865	99.1	0.9	87.4	inactive
OR5B2	3	-1.76	46.8	-0.976	67.6	inactive
DDOST	1	-1.39	54.3	-1.94	101	inactive
DDOST	2	6.04	202	3.89	81.2	active
DDOST	3	1.73	116	1.54	86.6	inactive
TENM2	1	0.199	85.8	-0.592	112	inactive
TENM2	2	-0.28	76.3	-0.522	97.8	inactive
TENM2	3	-0.199	77.9	-0.0906	89.2	inactive
PPP1R12A	1	2.16	125	2.4	74.2	inactive
PPP1R12A	2	-0.517	71.6	-0.411	89.2	inactive
PPP1R12A	3	1.42	110	1.44	84.3	inactive
CCR4	1	0.112	84.1	-0.132	97.3	inactive
CCR4	2	-0.37	74.5	-0.499	95	inactive
CCR4	3	-1.27	56.7	-1.12	85.1	inactive
MOCS1	1	-0.901	64	-0.332	78	inactive
MOCS1	2	0.31	88	0.0419	97.3	inactive
MOCS1	3	0.0624	83.1	-0.232	98.8	inactive
RPL21P68	1	-2.15	39.2	-1.74	69.3	inactive
RPL21P68	2	-0.208	77.8	-0.0489	88	inactive
RPL21P68	3	-1.61	49.9	-1.3	78.4	inactive
DLX2	1	-1.29	56.3	-1.15	85	inactive
DLX2	2	3.75	156	3.74	65.4	active
DLX2	3	-0.705	67.9	-0.823	94.2	inactive
FAM220BP	1	0.585	93.5	0.252	97.8	inactive
FAM220BP	2	0.335	88.5	-0.0846	101	inactive
FAM220BP	3	0.297	87.8	0.864	78.2	inactive

5 consecutive entries from above, for reference:
target gene	reagent	total luciferase, z-score	total luciferase, % of control	luciferase per cell, z-score	viable cells, % of control	Outcome
DEFB135	1	0.86	99	2.47	57.7	inactive
DEFB135	2	1.25	107	1.47	81.1	inactive
DEFB135	3	-0.279	76.3	-0.378	94.2	inactive
GRXCR1	1	1.53	112	0.652	106	inactive
GRXCR1	2	-0.841	65.2	-0.88	91.8	inactive
